Test results from patent EP0135172A2, “Method for treatment of osteoporosis” (Takeda Chemical Industries, Ltd., priority 1983, dated 1985).
For at least one compound, name, drawing or mass did not settle the structure.

Test system: young oophorectomized rats
Test: Estrogenic activity (uterine wet weight) in young oophorectomized rats
Assay type: in vivo, Sprague-Dawley rats
Conditions: subcutaneously for 3 days
Method: Sprague-Dawley rats, 33 days old and 11 days after oophorectomy for elimination of endogenous estrogenic activity, were used in groups of 6 to 7 animals. Compound (I) was suspended in a 1% aqueous solution of hydroxypropylcellulose and administered orally for 3 days, while as a representative example of the conventional estrogen drug, estrone was dissolved in sesame oil and administered subcutaneously for 3 days. On the fourth day, each animal was autopsied and its uterine wet weight was recorded.
Sprague-Dawley rats, 33 days old and 11 days after oophorectomy for elimination of endogenous estrogenic activity, were used in groups of 7 animals. Compound (II) was suspended in a 1% aqueous solution of hydroxypropylcellulose and administered orally.

Compound: C[C@]12CC[C@@H]3c4ccc(O)cc4CC[C@H]3[C@@H]1CCC2=O [Estrone, estrone, reference compound]
- uterine weight increasing effect, dose-response curve: showed uterine weight increasing effect with a dose-response curve of steep gradient
